Measurements taken from patent US4288432A (Richter Gedeon Vegyeszeti Gyar Rt., priority 1979, dated 1981).

Experiment: general procedure: solution-phase peptide synthesis; isobutyl chloroformate / N-methyl-morpholine (mixed anhydride); 2,4,5-trichlorop
Conditions: late stage modification step, acetate hydrate

Question: With “Amidino-L-tyrosyl-D-methionyl-glycyl-L-phenylalanine amide acetate hydrate” as the substance, how does the step yield read?
Answer: 80%

Question: For “Amidino-L-tyrosyl-D-methionyl-glycyl-L-phenylalanyl-L-proline amide acetate hydrate”, which step yield is on record?
Answer: 80%

Question: For “Amidino-L-tyrosyl-D-norleucyl-glycyl-L-phenylalanine amide acetate hydrate”, which step yield is on record?
Answer: 75%

Question: Which step yield does the source give for “Amidino-L-tyrosyl-D-norleucyl-glycyl-L-phenylalanyl-L-proline amide acetate hydrate” here?
Answer: 80%
